Here are results for 86 sequences from the supplement of paper PMC3334620.

The full ranking holds about 33,000 sequences; the median of “E-score (-0.5 to 0.5)” is about -0.0014, and the highest 2% start at about 0.25. This is one part of the list.

The target of the test is T1, Cad1 (UniProt P24813).
T1 sequence: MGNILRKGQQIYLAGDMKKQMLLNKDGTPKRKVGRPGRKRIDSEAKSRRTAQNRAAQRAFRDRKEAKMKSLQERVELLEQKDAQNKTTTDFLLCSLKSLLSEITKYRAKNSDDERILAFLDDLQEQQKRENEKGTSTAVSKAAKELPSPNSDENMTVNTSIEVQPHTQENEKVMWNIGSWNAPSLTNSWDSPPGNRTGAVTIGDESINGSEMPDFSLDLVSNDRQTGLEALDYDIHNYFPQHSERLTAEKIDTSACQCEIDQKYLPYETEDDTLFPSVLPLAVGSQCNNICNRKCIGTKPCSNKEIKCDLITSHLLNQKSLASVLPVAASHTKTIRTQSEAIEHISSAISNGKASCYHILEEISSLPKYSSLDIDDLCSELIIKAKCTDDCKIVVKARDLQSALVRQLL
Put plainly: PBM E-score (8-mer binding enrichment) (E-score (-0.5 to 0.5)); higher = stronger / more preferred TF binding. Particulars: protein concentration: 100 nM; construct: GST-full length. In outline: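 PURExpress in vitro transcription/translation supplied GST-tagged yeast transcription factors, either full-length or DNA-binding domain. Applied at about 100-200 nM to universal all-10-mer Agilent arrays double-stranded by primer extension, the bound protein was detected with fluorescent anti-GST. E-scores, modified Wilcoxon-Mann-Whitney statistics, were given by the Universal PBM Analysis Suite to ungapped eight-base words pooled with their reverse complements after masliner normalisation.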
For the sequence AATGACTA, the “PBM E-score” value is -0.018. Take ACTATAAG: the “PBM E-score” value worked out at 0.0228. In the case of GAGGTGGC, the “PBM E-score” value is -0.149. Next, ACATTGGT: 0.0584. As to GCCCCCAA, the “PBM E-score” value is -0.277. For the sequence GGTAGAAC, the “PBM E-score” value was -0.0501. Next, TACGAGGA: -0.0805. As to AATACTTA, the “PBM E-score” value is -0.00068. With CCGCAGTA, the “PBM E-score” value was -0.0843. Turning to GTAAGCAA, the “PBM E-score” value was 0.345. ACATTAGT: the “PBM E-score” value worked out at 0.234.

In the case of CTGACATC, the “PBM E-score” value is 0.0683. Next, ATTTCAGC: -0.126; CTTTTGGC: -0.0325. Next, AATGCAAC: 0.0897; TAATTCGA: 0.143; ATACTTAA: 0.178. Next, CAGTTTAA: -0.129; ACCTGGGA: 0.107. As to CAGGGGCC, the “PBM E-score” value is -0.136. For ACTCGAGA, the “PBM E-score” value is -0.0156. On to GCGGGCAC, for which the “PBM E-score” value is -0.0217. CTATAAGA: the “PBM E-score” value is 0.101.

Consider GCCCTTAC, for which the “PBM E-score” value is -0.186. The result for ACCACCAG reads 0.0286. Take TCGAAACA: the “PBM E-score” value was found to be 0.251.

CTTCCAGC: the “PBM E-score” value is -0.141.

In the case of CTCCTCAG, the “PBM E-score” value was -0.29.

Consider TCCGTCGA, for which the “PBM E-score” value was determined as 0.167. The result for GTCATCGA reads 0.11; that for CGGAGGTA, -0.0635; that for ATGCTTTA, 0.0615. As for TCCTGCGA, the “PBM E-score” value came to 0.112. The result for GGCGCGCA reads 0.195; that for CTTGTAAC, 0.0992. In the case of AGGTTACG, the “PBM E-score” value was -0.0843. Next, CTCGAGTA: 0.2; AGAGGTCG: -0.0586; AGCTTTTC: -0.0601. For GATCAGCC, the “PBM E-score” value was -0.0165. The result for TGCAATAA reads 0.136; that for CCGTTAAG, 0.0396. CGGATTGA: the “PBM E-score” value amounted to 0.118. Next, AACGTGAC: -0.0166; CGGTAGAA: -0.304; ATTGACGG: 0.111. Next, AGCGGATC: 0.0864; AGTTTGGG: 0.123; AATCAGTG: -0.0375. The result for AATGATGC reads 0.0987; that for AGCAAAAC, 0.0772. Turning to GAGGTACC, the “PBM E-score” value is -0.257. Next, AAGTGGTC: -0.0894; CTGCCATC: 0.00399; AGAAGTAA: 0.153. Take ATTCTGTA: the “PBM E-score” value is -0.0178.

For the sequence CGACACCC, the “PBM E-score” value worked out at 0.00473. Next, ACCCGCTA: -0.0304; CGCATCTA: 0.225; CATGTCCC: -0.119. Next, AAATTATG: 0.255; CATGAGAA: 0.00981; CCTGGGTA: -0.191.

Take CTTCCGTC: the “PBM E-score” value was -0.133. For AGCCCCAT, the “PBM E-score” value was -0.128. Next, CCATGGGA: -0.0604; CCGGGGCA: -0.127; CCATTCAC: -0.0396.

As to AAAACCCT, the “PBM E-score” value was -0.0196.

Take ACTCGGCG: the “PBM E-score” value came out at 0.00224.

As to CTTGCTAA, the “PBM E-score” value is -0.13. As for CCATCTAG, the “PBM E-score” value is -0.233. In the case of CGTTTACA, the “PBM E-score” value was determined as 0.0127. Next, GATACTGA: 0.14; GCTGCTAC: -0.141.

In the case of CCCATTAC, the “PBM E-score” value was -0.133. Next, GGGCCGAC: -0.0388; CCACCAAA: -0.0383. Turning to ACCGTATG, the “PBM E-score” value was -0.105. The result for AGTGAAGG reads -0.0678; that for ACCAAGAT, 0.0875.

CAGGTAAA: the “PBM E-score” value amounted to 0.143. The result for GGTTGACA reads -0.0649; that for ACATAACT, 0.0912.

Regarding CACACCGA, the “PBM E-score” value was 0.079. Next, ACAGGGAT: -0.0781.
